Experimental data published in the supplement of paper PMC10849652.
Some of the results follow.

Protein sequences, listed by entry. Tags and fused reporters are not part of them. Lines headed by an entry give the natural chain unless they say otherwise; changes in a name come on top.
UniProt Q99442: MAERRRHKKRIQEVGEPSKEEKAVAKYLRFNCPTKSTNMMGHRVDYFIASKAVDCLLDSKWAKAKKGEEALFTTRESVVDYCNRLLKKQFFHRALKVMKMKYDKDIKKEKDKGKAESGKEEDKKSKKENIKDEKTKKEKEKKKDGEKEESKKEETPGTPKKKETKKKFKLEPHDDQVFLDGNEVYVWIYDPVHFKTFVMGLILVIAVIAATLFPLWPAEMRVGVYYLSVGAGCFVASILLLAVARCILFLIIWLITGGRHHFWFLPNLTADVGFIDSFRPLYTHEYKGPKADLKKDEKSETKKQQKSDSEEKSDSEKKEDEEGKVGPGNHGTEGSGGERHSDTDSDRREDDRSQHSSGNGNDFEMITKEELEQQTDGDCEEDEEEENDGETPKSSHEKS
UniProt O94855: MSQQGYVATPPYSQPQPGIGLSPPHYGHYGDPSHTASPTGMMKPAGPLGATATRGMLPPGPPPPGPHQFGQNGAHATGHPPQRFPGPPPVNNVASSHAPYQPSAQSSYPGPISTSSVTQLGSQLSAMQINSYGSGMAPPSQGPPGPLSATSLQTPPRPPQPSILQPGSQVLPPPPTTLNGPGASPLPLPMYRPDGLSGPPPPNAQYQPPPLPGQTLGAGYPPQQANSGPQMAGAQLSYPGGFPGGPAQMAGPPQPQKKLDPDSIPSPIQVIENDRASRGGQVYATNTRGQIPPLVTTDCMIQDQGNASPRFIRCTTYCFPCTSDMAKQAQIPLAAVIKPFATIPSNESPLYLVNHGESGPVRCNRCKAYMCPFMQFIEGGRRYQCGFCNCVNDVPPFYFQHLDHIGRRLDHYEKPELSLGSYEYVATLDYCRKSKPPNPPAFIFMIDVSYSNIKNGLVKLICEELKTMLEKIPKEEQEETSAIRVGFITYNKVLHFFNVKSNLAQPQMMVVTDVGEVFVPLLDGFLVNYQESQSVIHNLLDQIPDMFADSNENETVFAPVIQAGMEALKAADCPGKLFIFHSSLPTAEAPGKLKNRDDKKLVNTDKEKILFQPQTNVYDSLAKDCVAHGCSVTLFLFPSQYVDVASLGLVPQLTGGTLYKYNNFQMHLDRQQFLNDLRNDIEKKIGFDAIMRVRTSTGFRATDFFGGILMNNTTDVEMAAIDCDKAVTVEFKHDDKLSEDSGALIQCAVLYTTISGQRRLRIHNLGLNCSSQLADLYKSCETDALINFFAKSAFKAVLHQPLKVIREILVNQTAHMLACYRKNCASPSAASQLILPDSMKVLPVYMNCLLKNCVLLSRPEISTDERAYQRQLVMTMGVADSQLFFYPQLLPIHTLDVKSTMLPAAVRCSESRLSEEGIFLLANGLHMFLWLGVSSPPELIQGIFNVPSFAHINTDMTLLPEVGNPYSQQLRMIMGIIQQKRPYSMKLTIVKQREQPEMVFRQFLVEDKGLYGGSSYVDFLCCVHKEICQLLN
UniProt Q9UHD8: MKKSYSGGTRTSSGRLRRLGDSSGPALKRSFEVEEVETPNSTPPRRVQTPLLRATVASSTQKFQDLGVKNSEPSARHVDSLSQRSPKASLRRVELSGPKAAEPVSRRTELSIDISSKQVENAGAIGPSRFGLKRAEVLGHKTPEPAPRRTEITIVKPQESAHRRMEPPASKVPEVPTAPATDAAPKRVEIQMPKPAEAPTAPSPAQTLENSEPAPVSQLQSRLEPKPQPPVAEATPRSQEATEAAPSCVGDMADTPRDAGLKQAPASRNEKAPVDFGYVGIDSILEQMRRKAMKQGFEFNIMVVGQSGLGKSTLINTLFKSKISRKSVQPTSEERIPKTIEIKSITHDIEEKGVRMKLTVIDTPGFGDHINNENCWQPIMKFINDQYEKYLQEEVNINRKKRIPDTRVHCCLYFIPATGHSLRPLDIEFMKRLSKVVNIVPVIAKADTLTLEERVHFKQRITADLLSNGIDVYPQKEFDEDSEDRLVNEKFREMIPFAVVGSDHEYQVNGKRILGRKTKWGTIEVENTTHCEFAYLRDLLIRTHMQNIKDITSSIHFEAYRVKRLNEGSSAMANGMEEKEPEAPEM
UniProt Q9BW04: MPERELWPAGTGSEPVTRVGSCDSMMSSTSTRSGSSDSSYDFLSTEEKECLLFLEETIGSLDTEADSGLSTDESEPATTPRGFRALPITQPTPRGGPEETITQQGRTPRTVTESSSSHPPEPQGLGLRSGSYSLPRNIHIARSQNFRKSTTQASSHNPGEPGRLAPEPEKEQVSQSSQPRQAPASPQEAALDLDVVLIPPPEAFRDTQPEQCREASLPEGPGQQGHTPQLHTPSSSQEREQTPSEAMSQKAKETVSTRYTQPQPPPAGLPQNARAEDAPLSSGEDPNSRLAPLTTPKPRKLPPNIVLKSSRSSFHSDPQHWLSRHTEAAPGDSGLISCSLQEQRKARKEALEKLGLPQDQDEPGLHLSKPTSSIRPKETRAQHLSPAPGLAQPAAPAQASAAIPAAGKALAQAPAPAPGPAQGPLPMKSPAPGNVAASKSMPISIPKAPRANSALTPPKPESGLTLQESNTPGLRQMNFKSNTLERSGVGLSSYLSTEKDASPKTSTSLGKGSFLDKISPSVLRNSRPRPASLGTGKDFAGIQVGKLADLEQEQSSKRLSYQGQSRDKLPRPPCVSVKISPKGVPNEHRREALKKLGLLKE
UniProt Q9HB40: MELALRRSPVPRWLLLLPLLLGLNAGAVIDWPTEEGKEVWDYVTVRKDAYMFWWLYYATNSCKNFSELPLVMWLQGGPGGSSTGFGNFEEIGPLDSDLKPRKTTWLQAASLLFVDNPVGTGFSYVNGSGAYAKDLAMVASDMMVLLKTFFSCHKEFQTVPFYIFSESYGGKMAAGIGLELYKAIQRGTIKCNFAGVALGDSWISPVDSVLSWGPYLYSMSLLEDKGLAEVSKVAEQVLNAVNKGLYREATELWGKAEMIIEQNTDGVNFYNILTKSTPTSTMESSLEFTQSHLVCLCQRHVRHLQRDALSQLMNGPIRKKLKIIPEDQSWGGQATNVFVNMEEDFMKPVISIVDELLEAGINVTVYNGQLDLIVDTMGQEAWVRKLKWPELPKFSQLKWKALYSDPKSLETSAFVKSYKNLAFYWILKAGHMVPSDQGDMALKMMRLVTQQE
UniProt Q9Y6Y8: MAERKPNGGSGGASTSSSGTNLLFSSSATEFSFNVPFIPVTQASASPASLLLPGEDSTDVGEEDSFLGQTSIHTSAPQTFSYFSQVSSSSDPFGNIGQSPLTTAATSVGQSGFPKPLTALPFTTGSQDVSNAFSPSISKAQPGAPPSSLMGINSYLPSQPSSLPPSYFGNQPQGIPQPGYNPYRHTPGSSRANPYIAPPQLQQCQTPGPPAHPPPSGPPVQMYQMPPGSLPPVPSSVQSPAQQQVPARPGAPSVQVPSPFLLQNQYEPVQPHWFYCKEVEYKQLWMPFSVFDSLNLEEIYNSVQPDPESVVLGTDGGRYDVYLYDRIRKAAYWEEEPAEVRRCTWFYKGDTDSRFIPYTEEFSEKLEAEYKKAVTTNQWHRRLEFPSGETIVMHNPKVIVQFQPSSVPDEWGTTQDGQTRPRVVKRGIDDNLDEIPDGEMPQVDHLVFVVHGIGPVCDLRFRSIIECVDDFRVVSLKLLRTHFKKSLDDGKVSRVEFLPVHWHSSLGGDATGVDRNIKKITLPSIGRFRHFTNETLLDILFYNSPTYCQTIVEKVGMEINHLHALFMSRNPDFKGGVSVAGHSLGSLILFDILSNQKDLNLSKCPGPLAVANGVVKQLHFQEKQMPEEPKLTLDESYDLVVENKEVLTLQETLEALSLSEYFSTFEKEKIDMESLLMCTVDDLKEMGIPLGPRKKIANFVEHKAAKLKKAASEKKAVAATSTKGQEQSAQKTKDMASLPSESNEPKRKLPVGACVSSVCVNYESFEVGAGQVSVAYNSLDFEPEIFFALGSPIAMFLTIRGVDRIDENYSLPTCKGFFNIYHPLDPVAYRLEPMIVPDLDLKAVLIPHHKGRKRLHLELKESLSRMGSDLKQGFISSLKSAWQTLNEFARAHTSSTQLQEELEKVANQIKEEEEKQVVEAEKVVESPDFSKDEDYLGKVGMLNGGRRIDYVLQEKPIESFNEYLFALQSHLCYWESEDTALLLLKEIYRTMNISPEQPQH
UniProt Q9BQE4, whole entry, looked up: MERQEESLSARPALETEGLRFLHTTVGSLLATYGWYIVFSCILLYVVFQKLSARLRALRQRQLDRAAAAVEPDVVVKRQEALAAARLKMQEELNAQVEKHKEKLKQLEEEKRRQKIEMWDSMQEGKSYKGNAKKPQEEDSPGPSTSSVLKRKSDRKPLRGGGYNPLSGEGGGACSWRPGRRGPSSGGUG
UniProt Q8WVM8, whole entry, looked up: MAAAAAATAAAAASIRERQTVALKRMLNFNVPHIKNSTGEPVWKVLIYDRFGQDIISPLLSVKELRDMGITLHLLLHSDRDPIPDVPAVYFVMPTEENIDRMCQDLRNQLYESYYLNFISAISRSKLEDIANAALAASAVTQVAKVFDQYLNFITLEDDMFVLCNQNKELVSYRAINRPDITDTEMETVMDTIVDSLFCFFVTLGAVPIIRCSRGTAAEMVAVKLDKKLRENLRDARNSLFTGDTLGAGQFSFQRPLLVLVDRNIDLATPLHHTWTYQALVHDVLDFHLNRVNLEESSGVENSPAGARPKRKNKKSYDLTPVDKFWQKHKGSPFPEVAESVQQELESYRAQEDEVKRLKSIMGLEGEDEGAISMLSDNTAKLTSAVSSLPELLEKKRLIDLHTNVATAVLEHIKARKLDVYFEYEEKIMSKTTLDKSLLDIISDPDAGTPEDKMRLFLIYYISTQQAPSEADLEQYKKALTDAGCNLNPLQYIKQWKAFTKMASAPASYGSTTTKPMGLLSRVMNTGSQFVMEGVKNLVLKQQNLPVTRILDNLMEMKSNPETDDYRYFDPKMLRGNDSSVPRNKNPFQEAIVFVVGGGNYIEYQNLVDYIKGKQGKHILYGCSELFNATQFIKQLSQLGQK
UniProt Q9UHR5: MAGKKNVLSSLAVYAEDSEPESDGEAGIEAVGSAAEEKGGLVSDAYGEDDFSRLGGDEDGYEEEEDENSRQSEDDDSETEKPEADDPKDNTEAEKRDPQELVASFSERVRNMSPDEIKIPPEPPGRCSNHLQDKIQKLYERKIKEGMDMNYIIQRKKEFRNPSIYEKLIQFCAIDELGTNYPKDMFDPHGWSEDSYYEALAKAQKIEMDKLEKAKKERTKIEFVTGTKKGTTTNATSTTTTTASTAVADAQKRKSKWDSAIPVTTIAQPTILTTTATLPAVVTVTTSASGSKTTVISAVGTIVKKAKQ
UniProt Q96EE3: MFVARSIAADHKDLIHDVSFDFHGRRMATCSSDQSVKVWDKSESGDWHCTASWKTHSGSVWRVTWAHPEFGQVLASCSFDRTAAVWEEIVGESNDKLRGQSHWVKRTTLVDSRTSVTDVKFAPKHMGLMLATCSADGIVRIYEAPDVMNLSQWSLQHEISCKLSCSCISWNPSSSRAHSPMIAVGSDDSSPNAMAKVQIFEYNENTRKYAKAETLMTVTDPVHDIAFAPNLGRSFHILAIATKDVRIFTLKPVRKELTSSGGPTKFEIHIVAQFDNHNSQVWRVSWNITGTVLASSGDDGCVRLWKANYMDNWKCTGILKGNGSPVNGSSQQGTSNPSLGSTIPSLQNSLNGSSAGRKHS
UniProt Q9Y3A5: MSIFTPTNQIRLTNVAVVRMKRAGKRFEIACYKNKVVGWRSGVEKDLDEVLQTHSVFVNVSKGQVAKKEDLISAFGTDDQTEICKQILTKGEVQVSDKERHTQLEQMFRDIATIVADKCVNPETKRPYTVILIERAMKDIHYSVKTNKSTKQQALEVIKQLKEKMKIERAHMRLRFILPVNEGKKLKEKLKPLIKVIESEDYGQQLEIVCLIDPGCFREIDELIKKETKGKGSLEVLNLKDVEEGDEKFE
UniProt O75326: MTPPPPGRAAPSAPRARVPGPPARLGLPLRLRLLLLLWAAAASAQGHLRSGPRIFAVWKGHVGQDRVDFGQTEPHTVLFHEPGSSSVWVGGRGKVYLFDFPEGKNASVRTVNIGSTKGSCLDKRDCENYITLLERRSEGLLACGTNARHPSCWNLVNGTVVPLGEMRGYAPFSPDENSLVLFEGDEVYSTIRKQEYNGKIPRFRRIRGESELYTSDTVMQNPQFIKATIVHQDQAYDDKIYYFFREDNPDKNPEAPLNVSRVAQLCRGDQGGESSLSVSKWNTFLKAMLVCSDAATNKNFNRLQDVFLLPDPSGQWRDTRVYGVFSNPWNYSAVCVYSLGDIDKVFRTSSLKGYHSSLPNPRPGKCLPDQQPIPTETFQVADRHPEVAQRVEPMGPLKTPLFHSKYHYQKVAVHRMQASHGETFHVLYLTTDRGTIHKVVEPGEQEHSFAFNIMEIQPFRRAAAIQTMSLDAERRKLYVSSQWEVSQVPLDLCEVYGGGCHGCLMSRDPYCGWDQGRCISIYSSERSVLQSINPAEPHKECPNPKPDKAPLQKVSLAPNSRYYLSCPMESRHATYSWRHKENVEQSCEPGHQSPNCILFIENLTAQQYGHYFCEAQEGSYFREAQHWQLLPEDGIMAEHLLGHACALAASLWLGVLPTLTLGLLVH

What was measured:
Test in all cases: log2 fold change, soluble protein after heating vs DMSO (PISA); higher = thermal stabilisation; K562 lysate, 10 uM; active = over 0.2 and 3.5 SD of the protein, either way, in both replicates (recomputed)
[1] = compound: Cc1cn(-c2cc(NC(=O)c3ccc(C)c(Nc4nccc(-c5cccnc5)n4)c3)cc(C(F)(F)F)c2)cn1 [nilotinib]
Outline: (§1)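 Quantification was by TMTpro 16plex LC-MS/MS with equalised channel sums, applied to the supernatant after 21,000xg for 90 min. Samples were crude K562 extract at 1 mg/mL protein in PBS pH 7.4 with 1 mM MgCl2, treated with 10 μM compound for 30 min, heated for 3 min across 48°C-58°C, pooled and brought to 0.5% NP-40 at 4°C. Values are log-two fold changes in thermal stability relative to solvent controls, from duplicates.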

[2] = compound: Cc1nc(Nc2n[nH]c3c2CN(C(=O)N[C@H](CN(C)C)c2ccccc2)C3(C)C)c2sccc2n1
Outline: as §1

[3] = compound: Cc1nc(Nc2ncc(C(=O)Nc3c(C)cccc3Cl)s2)cc(N2CCN(CCO)CC2)n1 [dasatinib]
Outline: as §1

[4] = compound: Cc1ncc(-c2ccnc(Nc3ccc(S(C)(=O)=O)cc3)n2)n1C(C)C
Outline: as §1

[5] = compound: Cn1cc(-c2ccc3c(c2)CCN3C(=O)Cc2cccc(C(F)(F)F)c2)c2c(N)ncnc21
Outline: as §1

[6] = compound: Cn1cc(CNCC2CCN(c3ncc(C(=O)NO)cn3)CC2)c2ccccc21 [quisinostat]
Outline: as §1

[7] = compound: Cn1cncc1[C@@](N)(c1ccc(Cl)cc1)c1ccc2c(c1)c(-c1cccc(Cl)c1)cc(=O)n2C [tipifarnib]
Outline: as §1

[8] = compound: NC(=O)Nc1cc(-c2cccc(F)c2)sc1C(=O)N[C@H]1CCCNC1
Outline: as §1

[9] = compound: NC(=O)c1cnc(N[C@@H]2CCCC[C@@H]2N)nc1Nc1cccc(-n2nccn2)c1
Outline: as §1

[10] = compound: NC1(c2ccc(-c3nc4ccn5c(=O)[nH]nc5c4cc3-c3ccccc3)cc2)CCC1
Outline: as §1

[11] = compound: NCC(=O)Nc1ccc(-n2nc(C(F)(F)F)cc2-c2ccc3c(ccc4ccccc43)c2)cc1
Outline: as §1

[12] = compound: O=C(CCCCCCC(=O)Nc1ccccc1)NO [vorinostat]
Outline: as §1

[13] = compound: O=C(O)c1ccc2c(c1)nc(Nc1cccc(Cl)c1)c1ccncc12 [silmitasertib]
Outline: as §1

[14] = compound: O=C1NC(=O)C(c2cnc3ccccn23)=C1c1cn2c3c(cc(F)cc13)CN(C(=O)N1CCCCC1)CC2
Outline: as §1

[15] = compound: c1cn2cc(-c3ccc4cn[nH]c4c3)nc(Nc3ccc(N4CCOCC4)cc3)c2n1 [entospletinib]
Outline: as §1

Row | Target | log2 fold change [1] | log2 fold change [2] | log2 fold change [3] | log2 fold change [4] | log2 fold change [5] | log2 fold change [6] | log2 fold change [7] | log2 fold change [8] | log2 fold change [9] | log2 fold change [10] | log2 fold change [11] | log2 fold change [12] | log2 fold change [13] | log2 fold change [14] | log2 fold change [15]
1 | SEPHS1 (UniProt P49903) | inactive: 0.043 | inactive: -0.012 | inactive: 0.028 | inactive: -0.001 | inactive: -0.008 | inactive: 0.032 | inactive: 0.023 | inactive: -0.005 | inactive: -0.026 | inactive: 0.003 | inactive: 0.032 | inactive: 0.113 | inactive: -0.012 | inactive: 0.029 | inactive: 0.002
2 | SAMD4B (UniProt Q5PRF9) | inactive: -0.033 | inactive: 0.039 | inactive: 0.014 | inactive: 0.021 | inactive: 0.024 | inactive: -0.044 | inactive: -0.014 | inactive: 0.028 | inactive: 0 | inactive: -0.02 | inactive: 0.022 | inactive: -0.096 | inactive: 0.046 | inactive: 0.038 | inactive: -0.062
3 | SEC22B (UniProt O75396) | inactive: 0.022 | inactive: -0.066 | inactive: 0.009 | inactive: 0.07 | inactive: -0.008 | inactive: 0.048 | inactive: 0.042 | inactive: -0.004 | inactive: 0.008 | inactive: -0.03 | inactive: -0.055 | inactive: 0.109 | inactive: 0.021 | inactive: 0.011 | inactive: -0.07
4 | SEC62 (UniProt Q99442) | inactive: 0.013 | inactive: -0.032 | inactive: 0.01 | inactive: -0.038 | inactive: -0.011 | inactive: 0.083 | inactive: -0.055 | inactive: -0.045 | inactive: -0.007 | inactive: -0.01 | inactive: 0.036 | inactive: 0.133 | inactive: 0.015 | inactive: 0.007 | inactive: -0.019
5 | SEC24D isoform 2 (UniProt O94855) | inactive: -0.006 | inactive: -0.016 | inactive: -0.004 | inactive: -0.029 | inactive: 0.002 | inactive: 0.01 | inactive: 0.001 | inactive: -0.012 | inactive: -0.004 | inactive: 0.006 | inactive: -0.017 | active: -0.251 | inactive: 0.037 | inactive: -0.013 | inactive: -0.003
6 | SEPTIN9 (UniProt Q9UHD8) | inactive: 0.001 | inactive: -0.011 | inactive: -0.01 | inactive: -0.008 | inactive: 0.001 | inactive: -0.016 | inactive: 0.023 | inactive: 0.015 | inactive: -0.01 | inactive: 0.018 | inactive: 0.005 | inactive: 0.013 | inactive: -0.022 | inactive: -0.006 | inactive: -0.01
7 | SARG (UniProt Q9BW04) | inactive: -0.025 | inactive: 0.016 | inactive: 0.013 | inactive: -0.008 | inactive: -0.035 | inactive: 0.003 | inactive: 0 | inactive: -0.044 | inactive: -0.003 | inactive: -0.012 | inactive: 0.022 | inactive: 0.015 | inactive: -0.1 | inactive: -0.007 | inactive: 0.015
8 | SCPEP1 (UniProt Q9HB40) | inactive: 0.103 | inactive: 0.085 | inactive: -0.014 | inactive: -0.012 | inactive: 0.124 | inactive: 0.024 | inactive: -0.018 | inactive: 0.096 | inactive: -0.018 | inactive: -0.047 | inactive: -0.006 | inactive: -0.082 | inactive: 0.05 | inactive: 0.039 | inactive: -0.069
9 | SCO2 (UniProt O43819) | inactive: 0.15 | inactive: -0.283 | inactive: -0.05 | inactive: -0.337 | inactive: 0.106 | inactive: 0.007 | inactive: -0.062 | inactive: -0.005 | inactive: 0.05 | inactive: -0.1 | inactive: -0.024 | inactive: 0.063 | inactive: -0.079 | inactive: 0.017 | inactive: 0.053
10 | SEC23IP (UniProt Q9Y6Y8) | inactive: -0.025 | inactive: -0.016 | inactive: 0.027 | inactive: 0.013 | inactive: -0.002 | inactive: -0.072 | inactive: -0.006 | inactive: 0.039 | inactive: 0.012 | inactive: 0.03 | inactive: 0.008 | inactive: -0.063 | inactive: -0.003 | inactive: -0.031 | inactive: -0.012
11 | SELENOS (UniProt Q9BQE4) | inactive: 0.044 | inactive: 0.069 | inactive: 0 | inactive: -0.046 | inactive: -0.03 | inactive: -0.034 | inactive: 0.089 | inactive: -0.032 | inactive: 0.016 | inactive: -0.025 | inactive: -0.019 | inactive: 0.009 | inactive: -0.084 | inactive: 0.029 | inactive: 0.006
12 | SDE2 (UniProt Q6IQ49) | inactive: 0.001 | inactive: 0.027 | inactive: -0.02 | inactive: 0.009 | inactive: -0.037 | inactive: 0.024 | inactive: 0.013 | inactive: -0.006 | inactive: -0.014 | inactive: 0.048 | inactive: 0.034 | inactive: -0.038 | inactive: 0.013 | inactive: -0.039 | inactive: 0.024
13 | SECISBP2L (UniProt Q93073) | inactive: 0.001 | inactive: 0.078 | inactive: -0.106 | inactive: 0.011 | inactive: 0.012 | inactive: -0.198 | inactive: -0.156 | inactive: 0.026 | inactive: 0.057 | inactive: -0.069 | inactive: -0.035 | inactive: -0.224 | inactive: 0.016 | inactive: -0.058 | inactive: 0.068
14 | SELENBP1 isoform 4 (UniProt Q13228) | inactive: 0.019 | inactive: -0.006 | inactive: 0.021 | inactive: -0.033 | inactive: 0.029 | inactive: 0 | inactive: 0.012 | inactive: 0.01 | inactive: -0.001 | inactive: 0.007 | inactive: 0.008 | inactive: 0.115 | inactive: 0.017 | inactive: -0.002 | inactive: 0.002
15 | SCFD1 (UniProt Q8WVM8) | inactive: 0.007 | inactive: -0.02 | inactive: -0.023 | inactive: 0.021 | inactive: 0.005 | inactive: 0.012 | inactive: 0.013 | inactive: 0.013 | inactive: 0.017 | inactive: -0.016 | inactive: 0.009 | inactive: -0.005 | inactive: 0.027 | inactive: -0.02 | inactive: 0.018
16 | SAMHD1 (UniProt Q9Y3Z3) | inactive: -0.006 | inactive: 0.008 | inactive: -0.026 | inactive: 0.013 | inactive: 0.066 | inactive: -0.02 | inactive: 0.03 | inactive: 0.054 | inactive: 0.046 | inactive: 0.004 | inactive: -0.012 | active: -0.352 | inactive: -0.002 | inactive: 0.032 | inactive: 0.031
17 | SAP30BP (UniProt Q9UHR5) | inactive: -0.017 | inactive: 0.022 | inactive: 0.011 | inactive: -0.016 | inactive: -0.008 | inactive: -0.032 | inactive: -0.028 | inactive: -0.002 | inactive: 0.005 | inactive: -0.019 | inactive: -0.06 | inactive: 0.094 | inactive: -0.014 | inactive: 0.011 | inactive: 0.005
18 | SEH1L isoform 1 (UniProt Q96EE3) | inactive: -0.009 | inactive: -0.019 | inactive: 0.032 | inactive: 0.006 | inactive: 0.007 | inactive: -0.008 | inactive: -0.008 | inactive: 0 | inactive: 0.003 | inactive: -0.028 | inactive: 0.056 | inactive: -0.001 | inactive: -0.02 | inactive: -0.008 | inactive: -0.011
19 | SBDS (UniProt Q9Y3A5) | inactive: 0.005 | inactive: 0.014 | inactive: -0.013 | inactive: 0.038 | inactive: -0.009 | inactive: -0.032 | inactive: 0.007 | inactive: -0.016 | inactive: -0.013 | inactive: -0.003 | inactive: -0.011 | inactive: 0.11 | inactive: -0.047 | inactive: 0.007 | inactive: 0.004
20 | SEC24C (UniProt P53992) | inactive: 0.034 | inactive: 0.011 | inactive: -0.012 | inactive: 0.006 | inactive: -0.014 | inactive: 0.016 | inactive: 0.028 | inactive: 0.012 | inactive: -0.008 | inactive: 0.011 | inactive: 0.01 | inactive: -0.19 | inactive: 0.006 | inactive: 0.012 | inactive: -0.009
21 | SEMA7A (UniProt O75326) | inactive: 0.042 | inactive: -0.169 | inactive: -0.016 | inactive: -0.107 | inactive: -0.023 | inactive: -0.006 | inactive: -0.174 | inactive: 0.006 | inactive: 0.024 | inactive: -0.233 | inactive: 0.257 | inactive: 0.116 | inactive: -0.003 | inactive: -0.028 | inactive: -0.024

2 entries from above, comma-delimited:
Row,Target,log2 fold change [1],log2 fold change [2],log2 fold change [3],log2 fold change [4],log2 fold change [5],log2 fold change [6],log2 fold change [7],log2 fold change [8],log2 fold change [9],log2 fold change [10],log2 fold change [11],log2 fold change [12],log2 fold change [13],log2 fold change [14],log2 fold change [15]
9,SCO2 (UniProt O43819),inactive: 0.15,inactive: -0.283,inactive: -0.05,inactive: -0.337,inactive: 0.106,inactive: 0.007,inactive: -0.062,inactive: -0.005,inactive: 0.05,inactive: -0.1,inactive: -0.024,inactive: 0.063,inactive: -0.079,inactive: 0.017,inactive: 0.053
10,SEC23IP (UniProt Q9Y6Y8),inactive: -0.025,inactive: -0.016,inactive: 0.027,inactive: 0.013,inactive: -0.002,inactive: -0.072,inactive: -0.006,inactive: 0.039,inactive: 0.012,inactive: 0.03,inactive: 0.008,inactive: -0.063,inactive: -0.003,inactive: -0.031,inactive: -0.012
